According to the supplement of paper PMC10849652:
This is one part of the list.

Protein sequences, listed by entry. Tags and fused reporters are not part of them. Lines headed by an entry give the natural chain unless they say otherwise; changes in a name come on top.
UniProt Q9BTX7: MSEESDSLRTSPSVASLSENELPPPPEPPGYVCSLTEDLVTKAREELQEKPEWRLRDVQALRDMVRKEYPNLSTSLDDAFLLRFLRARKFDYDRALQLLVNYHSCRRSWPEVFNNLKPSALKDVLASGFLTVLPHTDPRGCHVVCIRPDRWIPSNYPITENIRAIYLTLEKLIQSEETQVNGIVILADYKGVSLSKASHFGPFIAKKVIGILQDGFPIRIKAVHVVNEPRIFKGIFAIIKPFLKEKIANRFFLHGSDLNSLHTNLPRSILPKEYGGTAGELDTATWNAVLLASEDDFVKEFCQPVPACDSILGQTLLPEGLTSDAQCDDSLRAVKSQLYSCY
UniProt Q5JXB2: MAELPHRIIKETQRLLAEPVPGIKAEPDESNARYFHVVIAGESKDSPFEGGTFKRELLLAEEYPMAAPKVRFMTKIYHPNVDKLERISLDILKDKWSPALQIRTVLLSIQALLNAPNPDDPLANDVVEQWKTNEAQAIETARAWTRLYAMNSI
UniProt Q96S82: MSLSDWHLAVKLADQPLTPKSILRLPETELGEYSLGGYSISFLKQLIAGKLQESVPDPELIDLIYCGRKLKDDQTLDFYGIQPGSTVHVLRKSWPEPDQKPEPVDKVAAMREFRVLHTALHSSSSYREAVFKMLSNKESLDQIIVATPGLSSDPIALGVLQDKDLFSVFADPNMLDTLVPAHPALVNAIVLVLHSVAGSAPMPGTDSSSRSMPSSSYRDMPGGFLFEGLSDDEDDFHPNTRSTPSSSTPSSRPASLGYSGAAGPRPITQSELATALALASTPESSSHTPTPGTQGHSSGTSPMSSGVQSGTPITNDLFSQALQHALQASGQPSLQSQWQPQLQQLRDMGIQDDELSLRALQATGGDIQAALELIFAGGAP
UniProt Q13885, whole entry, looked up: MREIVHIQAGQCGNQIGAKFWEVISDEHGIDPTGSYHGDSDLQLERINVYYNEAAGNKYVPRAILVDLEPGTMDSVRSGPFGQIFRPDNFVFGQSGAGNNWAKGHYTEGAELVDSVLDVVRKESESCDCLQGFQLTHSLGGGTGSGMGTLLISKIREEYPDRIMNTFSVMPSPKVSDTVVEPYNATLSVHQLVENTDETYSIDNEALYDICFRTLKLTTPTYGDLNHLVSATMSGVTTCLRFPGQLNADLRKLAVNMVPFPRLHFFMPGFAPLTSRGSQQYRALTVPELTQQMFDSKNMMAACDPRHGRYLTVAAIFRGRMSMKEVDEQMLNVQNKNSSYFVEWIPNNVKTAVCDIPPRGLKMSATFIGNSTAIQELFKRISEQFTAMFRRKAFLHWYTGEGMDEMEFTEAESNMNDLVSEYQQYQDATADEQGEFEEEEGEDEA
UniProt Q92575: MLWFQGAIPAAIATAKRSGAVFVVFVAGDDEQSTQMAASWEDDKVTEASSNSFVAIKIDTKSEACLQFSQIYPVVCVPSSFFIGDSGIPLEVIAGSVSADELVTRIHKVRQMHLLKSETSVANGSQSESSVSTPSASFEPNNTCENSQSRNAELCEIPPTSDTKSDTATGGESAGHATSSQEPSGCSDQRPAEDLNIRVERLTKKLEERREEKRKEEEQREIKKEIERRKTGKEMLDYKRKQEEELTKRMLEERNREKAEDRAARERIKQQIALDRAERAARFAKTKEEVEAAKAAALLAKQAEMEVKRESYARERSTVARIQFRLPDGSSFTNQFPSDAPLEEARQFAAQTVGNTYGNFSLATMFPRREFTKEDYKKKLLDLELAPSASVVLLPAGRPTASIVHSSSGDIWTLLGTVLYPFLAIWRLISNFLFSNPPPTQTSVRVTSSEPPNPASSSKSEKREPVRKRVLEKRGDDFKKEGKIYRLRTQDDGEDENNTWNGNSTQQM
UniProt O95155, whole entry, looked up: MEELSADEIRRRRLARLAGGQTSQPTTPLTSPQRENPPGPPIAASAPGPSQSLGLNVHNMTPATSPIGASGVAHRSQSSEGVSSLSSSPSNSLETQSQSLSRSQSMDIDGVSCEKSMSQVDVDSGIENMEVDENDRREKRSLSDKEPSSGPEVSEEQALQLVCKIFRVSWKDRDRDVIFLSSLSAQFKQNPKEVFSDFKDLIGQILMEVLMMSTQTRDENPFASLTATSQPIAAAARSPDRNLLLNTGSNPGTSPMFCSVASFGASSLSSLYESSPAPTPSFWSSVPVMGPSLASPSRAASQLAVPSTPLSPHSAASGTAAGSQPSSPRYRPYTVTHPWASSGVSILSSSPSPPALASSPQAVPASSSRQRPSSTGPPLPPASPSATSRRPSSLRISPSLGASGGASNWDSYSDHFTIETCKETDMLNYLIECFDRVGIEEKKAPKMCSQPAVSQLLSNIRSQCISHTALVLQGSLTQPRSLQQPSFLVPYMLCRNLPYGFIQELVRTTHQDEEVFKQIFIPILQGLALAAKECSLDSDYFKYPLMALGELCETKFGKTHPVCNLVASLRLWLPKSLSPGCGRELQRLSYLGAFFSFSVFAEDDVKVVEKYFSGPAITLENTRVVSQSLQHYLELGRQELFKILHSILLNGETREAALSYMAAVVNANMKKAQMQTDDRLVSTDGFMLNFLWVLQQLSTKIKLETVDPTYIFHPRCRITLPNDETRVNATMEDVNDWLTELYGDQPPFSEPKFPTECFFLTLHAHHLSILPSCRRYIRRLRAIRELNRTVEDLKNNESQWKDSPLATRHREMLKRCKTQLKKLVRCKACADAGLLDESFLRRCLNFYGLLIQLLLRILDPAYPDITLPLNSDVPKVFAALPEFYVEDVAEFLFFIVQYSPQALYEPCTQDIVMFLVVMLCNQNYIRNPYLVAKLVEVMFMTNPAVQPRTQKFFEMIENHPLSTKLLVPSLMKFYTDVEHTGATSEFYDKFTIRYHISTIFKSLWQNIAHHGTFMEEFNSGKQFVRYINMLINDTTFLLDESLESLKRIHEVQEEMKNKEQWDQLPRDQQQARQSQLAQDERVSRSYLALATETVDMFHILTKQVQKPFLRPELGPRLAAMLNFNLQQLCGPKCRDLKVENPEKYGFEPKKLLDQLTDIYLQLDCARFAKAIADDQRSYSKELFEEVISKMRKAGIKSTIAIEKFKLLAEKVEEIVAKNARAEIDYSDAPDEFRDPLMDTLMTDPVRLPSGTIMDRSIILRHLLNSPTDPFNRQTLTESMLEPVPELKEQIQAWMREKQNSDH
UniProt Q7Z7E8: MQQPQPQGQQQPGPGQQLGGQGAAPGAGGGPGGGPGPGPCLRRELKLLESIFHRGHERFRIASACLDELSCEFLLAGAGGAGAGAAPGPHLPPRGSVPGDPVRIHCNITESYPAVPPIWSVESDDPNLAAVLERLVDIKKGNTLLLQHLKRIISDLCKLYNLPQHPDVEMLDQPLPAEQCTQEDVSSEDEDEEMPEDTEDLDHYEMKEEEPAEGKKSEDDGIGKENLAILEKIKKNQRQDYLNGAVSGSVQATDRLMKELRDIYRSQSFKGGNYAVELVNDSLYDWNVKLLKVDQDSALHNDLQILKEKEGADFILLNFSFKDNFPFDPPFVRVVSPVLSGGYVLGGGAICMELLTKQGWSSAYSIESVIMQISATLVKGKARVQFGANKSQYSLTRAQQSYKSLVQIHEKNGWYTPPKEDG
UniProt Q99757: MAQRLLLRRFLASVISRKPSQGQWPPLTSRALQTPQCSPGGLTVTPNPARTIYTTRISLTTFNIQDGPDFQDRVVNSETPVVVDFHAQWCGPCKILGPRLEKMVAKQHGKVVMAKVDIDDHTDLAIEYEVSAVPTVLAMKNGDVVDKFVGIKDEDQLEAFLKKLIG
UniProt O14562: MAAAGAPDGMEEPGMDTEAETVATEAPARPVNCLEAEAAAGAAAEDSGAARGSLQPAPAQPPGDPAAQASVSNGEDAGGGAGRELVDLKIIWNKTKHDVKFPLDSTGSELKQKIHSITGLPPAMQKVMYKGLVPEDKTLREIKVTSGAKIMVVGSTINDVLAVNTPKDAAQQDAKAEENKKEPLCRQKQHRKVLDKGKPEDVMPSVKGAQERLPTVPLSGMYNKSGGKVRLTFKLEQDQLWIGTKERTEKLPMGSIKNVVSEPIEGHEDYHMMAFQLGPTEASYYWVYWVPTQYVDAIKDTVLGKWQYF
UniProt P26368, whole entry, looked up: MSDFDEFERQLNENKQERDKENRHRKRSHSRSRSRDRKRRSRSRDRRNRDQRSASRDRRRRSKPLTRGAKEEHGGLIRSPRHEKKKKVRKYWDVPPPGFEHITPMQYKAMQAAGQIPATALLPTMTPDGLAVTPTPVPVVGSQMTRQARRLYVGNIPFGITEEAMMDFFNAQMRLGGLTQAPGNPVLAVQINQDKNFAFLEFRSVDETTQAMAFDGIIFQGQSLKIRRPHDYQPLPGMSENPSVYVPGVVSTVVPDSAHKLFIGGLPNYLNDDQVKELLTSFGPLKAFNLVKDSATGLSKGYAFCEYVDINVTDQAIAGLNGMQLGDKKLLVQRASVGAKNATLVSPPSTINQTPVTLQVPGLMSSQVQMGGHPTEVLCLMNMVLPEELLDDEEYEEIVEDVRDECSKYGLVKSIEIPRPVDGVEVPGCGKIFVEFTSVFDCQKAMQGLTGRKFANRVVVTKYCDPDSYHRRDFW
UniProt Q9HA47: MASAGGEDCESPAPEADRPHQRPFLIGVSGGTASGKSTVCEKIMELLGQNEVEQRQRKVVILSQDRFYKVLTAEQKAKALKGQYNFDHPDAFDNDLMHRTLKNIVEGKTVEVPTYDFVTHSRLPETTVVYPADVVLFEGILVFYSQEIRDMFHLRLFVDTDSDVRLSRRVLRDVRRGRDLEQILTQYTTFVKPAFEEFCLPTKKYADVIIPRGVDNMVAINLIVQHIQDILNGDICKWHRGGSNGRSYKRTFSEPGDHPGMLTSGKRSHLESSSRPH
UniProt Q13454: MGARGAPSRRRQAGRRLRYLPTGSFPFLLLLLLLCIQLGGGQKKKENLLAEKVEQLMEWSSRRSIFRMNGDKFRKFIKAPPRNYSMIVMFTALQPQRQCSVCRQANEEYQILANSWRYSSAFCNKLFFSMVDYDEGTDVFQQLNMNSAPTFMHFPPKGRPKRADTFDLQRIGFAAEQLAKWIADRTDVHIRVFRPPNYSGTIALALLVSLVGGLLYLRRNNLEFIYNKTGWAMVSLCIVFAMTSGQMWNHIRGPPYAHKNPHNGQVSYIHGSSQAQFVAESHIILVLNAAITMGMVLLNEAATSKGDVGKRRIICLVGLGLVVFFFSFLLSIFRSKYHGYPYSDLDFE
UniProt Q8WVN8: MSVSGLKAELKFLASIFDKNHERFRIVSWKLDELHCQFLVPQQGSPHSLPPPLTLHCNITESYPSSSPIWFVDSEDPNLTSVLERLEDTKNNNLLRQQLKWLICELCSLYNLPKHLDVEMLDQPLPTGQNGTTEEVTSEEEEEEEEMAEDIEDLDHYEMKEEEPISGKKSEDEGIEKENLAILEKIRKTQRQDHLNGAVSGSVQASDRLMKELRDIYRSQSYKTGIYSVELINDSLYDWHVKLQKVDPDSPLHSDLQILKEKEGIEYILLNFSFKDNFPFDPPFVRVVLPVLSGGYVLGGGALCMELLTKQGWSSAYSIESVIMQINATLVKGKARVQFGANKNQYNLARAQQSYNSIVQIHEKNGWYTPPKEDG
UniProt Q9NPD8: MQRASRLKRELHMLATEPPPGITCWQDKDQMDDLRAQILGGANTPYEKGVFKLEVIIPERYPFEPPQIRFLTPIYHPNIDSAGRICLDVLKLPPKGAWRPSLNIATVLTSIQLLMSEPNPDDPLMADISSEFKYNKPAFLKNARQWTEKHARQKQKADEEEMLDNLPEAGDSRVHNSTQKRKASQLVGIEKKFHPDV
UniProt Q9BUF5, whole entry, looked up: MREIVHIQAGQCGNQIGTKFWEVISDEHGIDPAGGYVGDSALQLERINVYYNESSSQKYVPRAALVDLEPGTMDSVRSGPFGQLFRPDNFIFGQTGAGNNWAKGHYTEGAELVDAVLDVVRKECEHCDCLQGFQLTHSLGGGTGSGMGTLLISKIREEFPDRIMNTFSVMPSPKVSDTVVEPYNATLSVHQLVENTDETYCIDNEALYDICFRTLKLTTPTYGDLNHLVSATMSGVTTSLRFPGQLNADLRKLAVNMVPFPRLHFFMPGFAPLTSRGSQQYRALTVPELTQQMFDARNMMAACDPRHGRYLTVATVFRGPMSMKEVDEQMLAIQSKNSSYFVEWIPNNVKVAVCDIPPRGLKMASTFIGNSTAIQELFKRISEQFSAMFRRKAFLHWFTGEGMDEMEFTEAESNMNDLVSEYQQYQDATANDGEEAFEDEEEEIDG
UniProt Q969T4: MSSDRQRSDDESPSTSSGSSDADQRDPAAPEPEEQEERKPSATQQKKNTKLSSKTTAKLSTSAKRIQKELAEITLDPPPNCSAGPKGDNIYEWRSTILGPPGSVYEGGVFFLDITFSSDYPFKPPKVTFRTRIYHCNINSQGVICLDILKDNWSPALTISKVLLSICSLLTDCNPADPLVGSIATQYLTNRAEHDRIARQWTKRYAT
UniProt P61086: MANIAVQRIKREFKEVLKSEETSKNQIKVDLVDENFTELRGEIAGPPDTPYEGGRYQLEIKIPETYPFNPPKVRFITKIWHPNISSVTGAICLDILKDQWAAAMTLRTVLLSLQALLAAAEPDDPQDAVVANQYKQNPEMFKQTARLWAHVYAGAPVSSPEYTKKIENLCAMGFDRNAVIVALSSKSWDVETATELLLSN

How the values were obtained:
Experiment in all cases: log2 fold change, soluble protein after heating vs DMSO (PISA); higher = thermal stabilisation; K562 lysate, 10 uM; active = over 0.2 and 3.5 SD of the protein, either way, in both replicates (recomputed)
[1] = compound: C1=CC=C(C=C1)[C@H](COC2=CC3=C(C=C2)NC(=O)N3)NC(=O)C4=CC=CN(C4=O)CC5=CC(=C(C=C5)F)F
Outline: (§1)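 To prepare the extract, K562 pellets were dounce-homogenised in PBS pH 7.4 with 1 mM MgCl2, giving crude material at 1 mg/mL protein. This was treated with 10 μM compound for 30 min, then heated in aliquots for 3 min over 48°C-58°C before pooling and addition of NP-40 to 0.5% at 4°C. Centrifugation at 21,000xg for 90 min left soluble protein in the supernatant, which TMTpro 16plex LC-MS/MS quantified with equalised channel sums. Results are log-two fold changes in thermal stability compared with solvent controls, from duplicates.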

[2] = compound: CC1=C(SC2=C1C(=N[C@H](C3=NN=C(N32)C)CC(=O)N)C4=CC=C(C=C4)Cl)C
Outline: as §1

[3] = compound: CC1=C2C(=CC=C1)N=C(N(C2=O)C3=CC=CC=C3C)CN4C=NC5=C(N=CN=C54)N
Outline: as §1

[4] = compound: Cc1sc2c(c1C)C(c1ccc(Cl)cc1)=N[C@@H](CC(=O)OC(C)(C)C)c1nnc(C)n1-2
Outline: as §1

[5] = compound: c1ccc([C@@H]2C[C@H]2NC2CCNCC2)cc1
Outline: as §1

Measured: log2 fold change

TTPAL (UniProt Q9BTX7)
inactive: [1] -0.02 | [2] -0.011 | [3] -0.036 | [4] -0.043 | [5] -0.056

UBLCP1 (UniProt Q8WVY7)
inactive: [1] 0.013 | [2] -0.043 | [3] -0.092 | [4] 0 | [5] 0.057

U2SURP (UniProt O15042)
inactive: [1] -0.003 | [2] 0.012 | [3] 0.041 | [4] 0.065 | [5] 0.025

UBR4 (UniProt Q5T4S7)
inactive: [1] -0.012 | [2] -0.008 | [3] 0.012 | [4] 0.012 | [5] -0.003

UBE2NL (UniProt Q5JXB2)
inactive: [1] -0.031 | [2] -0.04 | [3] 0.008 | [4] 0.009 | [5] 0.068

UCHL3 (UniProt P15374)
inactive: [1] -0.094 | [2] -0.094 | [3] -0.021 | [4] 0 | [5] -0.01

UBE2J1 (UniProt Q9Y385)
inactive: [1] -0.078 | [2] 0.027 | [3] 0.041 | [4] -0.077 | [5] 0.067

TXNL4B (UniProt Q9NX01)
inactive: [1] -0.444 | [2] 0.404 | [3] 0.242 | [4] 0.008 | [5] 0.105

UBE3C (UniProt Q15386)
inactive: [1] -0.027 | [2] -0.04 | [3] 0.127 | [4] 0.066 | [5] 0.039

TXNDC9 (UniProt O14530)
inactive: [1] -0.004 | [2] 0.031 | [3] 0.017 | [4] -0.035 | [5] -0.061

UBAP2 (UniProt Q5T6F2)
inactive: [1] -0.019 | [2] -0.003 | [3] -0.008 | [4] -0.022 | [5] -0.119

UBL7 (UniProt Q96S82)
inactive: [1] -0.062 | [2] -0.005 | [3] -0.036 | [4] 0.014 | [5] 0.053

TXNDC15 (UniProt Q96J42)
inactive: [1] 0.004 | [2] -0.012 | [3] 0.009 | [4] -0.094 | [5] 0.042

TUBB2A (UniProt Q13885)
inactive: [1] 0.017 | [2] 0.01 | [3] 0 | [4] 0.003 | [5] -0.015

UBXN4 (UniProt Q92575)
inactive: [1] 0.024 | [2] -0.047 | [3] -0.004 | [4] -0.065 | [5] -0.064

UBE4B isoform 4 (UniProt O95155)
inactive: [1] 0.009 | [2] 0.004 | [3] -0.001 | [4] -0.015 | [5] -0.007

UBE2D3 isoform 3 (UniProt P61077)
inactive: [1] -0.017 | [2] -0.006 | [3] -0.039 | [4] 0.095 | [5] -0.023

UBE2S (UniProt Q16763)
inactive: [1] -0.017 | [2] 0.036 | [3] -0.024 | [4] 0 | [5] -0.009

TXNDC17 (UniProt Q9BRA2)
inactive: [1] -0.059 | [2] -0.052 | [3] -0.014 | [4] 0.018 | [5] -0.006

UBC (UniProt P0CG48)
inactive: [1] 0.002 | [2] -0.006 | [3] 0.019 | [4] -0.02 | [5] 0.162

UBE2O (UniProt Q9C0C9)
inactive: [1] 0.007 | [2] 0.015 | [3] -0.003 | [4] -0.033 | [5] -0.083

UBXN2B (UniProt Q14CS0)
inactive: [1] 0.028 | [2] -0.03 | [3] 0.019 | [4] 0.042 | [5] 0.014

UBE2Q1 (UniProt Q7Z7E8)
inactive: [1] 0.021 | [2] 0.003 | [3] 0.013 | [4] -0.074 | [5] -0.037

TUBGCP5 (UniProt Q96RT8)
inactive: [1] -0.209 | [2] 0.088 | [3] 0.039 | [4] -0.093 | [5] 0.071

UBP1 (UniProt Q9NZI7)
inactive: [1] 0.082 | [2] -0.057 | [3] -0.018 | [4] 0.009 | [5] 0.056

UBA2 (UniProt Q9UBT2)
inactive: [1] 0.02 | [2] 0.027 | [3] -0.01 | [4] -0.003 | [5] 0.013

TUT4 (UniProt Q5TAX3)
inactive: [1] -0.032 | [2] -0.024 | [3] 0.035 | [4] 0.009 | [5] -0.021

TXNRD2 (UniProt Q9NNW7)
inactive: [1] 0.023 | [2] -0.015 | [3] -0.048 | [4] -0.042 | [5] 0.006

TXN2 (UniProt Q99757)
inactive: [1] 0.082 | [2] -0.143 | [3] 0.045 | [4] 0 | [5] -0.119

UBFD1 (UniProt O14562)
inactive: [1] 0.007 | [2] 0.024 | [3] -0.007 | [4] -0.015 | [5] -0.024

UBL5 (UniProt Q9BZL1)
inactive: [1] 0.063 | [2] 0.008 | [3] -0.06 | [4] 0.005 | [5] -0.167

UBXN6 (UniProt Q9BZV1)
inactive: [1] -0.03 | [2] 0.027 | [3] 0.03 | [4] 0.022 | [5] 0.031

U2AF2 (UniProt P26368)
inactive: [1] 0.021 | [2] -0.009 | [3] 0.005 | [4] 0.042 | [5] 0.001

UCK1 isoform 4 (UniProt Q9HA47)
inactive: [1] 0.032 | [2] -0.083 | [3] -0.013 | [4] 0.129 | [5] 0.001

TUSC3 isoform 2 (UniProt Q13454)
inactive: [1] -0.012 | [2] -0.006 | [3] 0.032 | [4] -0.007 | [5] -0.082

UBE2Q2 (UniProt Q8WVN8)
inactive: [1] 0.026 | [2] 0.012 | [3] -0.007 | [4] 0.153 | [5] 0.117

UBE2T (UniProt Q9NPD8)
inactive: [1] -0.014 | [2] 0.063 | [3] 0.02 | [4] 0.015 | [5] 0.034

TXN (UniProt P10599)
inactive: [1] 0.045 | [2] -0.036 | [3] 0 | [4] 0.031 | [5] -0.065

Retrieved one by one from above (2):
UCK1 isoform 4 (UniProt Q9HA47)
inactive: [1] 0.032 | [2] -0.083 | [3] -0.013 | [4] 0.129 | [5] 0.001

UBE2Q2 (UniProt Q8WVN8)
inactive: [1] 0.026 | [2] 0.012 | [3] -0.007 | [4] 0.153 | [5] 0.117

Continued.

TUBGCP3 (UniProt Q96CW5)
inactive: [1] -0.007 | [2] -0.004 | [3] 0.011 | [4] 0.008 | [5] 0.037

UBE2Z (UniProt Q9H832)
inactive: [1] 0.02 | [2] 0.007 | [3] 0.025 | [4] -0.01 | [5] -0.049

TUBB6 (UniProt Q9BUF5)
inactive: [1] -0.005 | [2] 0.033 | [3] 0.02 | [4] 0.017 | [5] 0.027

UBE2G1 (UniProt P62253)
inactive: [1] -0.029 | [2] 0.014 | [3] 0.006 | [4] -0.028 | [5] 0.017

TXLNA (UniProt P40222)
inactive: [1] 0.012 | [2] 0.01 | [3] -0.007 | [4] 0.001 | [5] 0.015

UBE2F isoform 2 (UniProt Q969M7)
inactive: [1] -0.013 | [2] -0.042 | [3] -0.013 | [4] 0.007 | [5] 0

TUBB (UniProt P07437)
inactive: [1] 0.025 | [2] 0.027 | [3] -0.005 | [4] 0.014 | [5] -0.001

UAP1 (UniProt Q16222)
inactive: [1] 0.013 | [2] 0.028 | [3] -0.003 | [4] 0.026 | [5] 0.016

UBA1 (UniProt P22314)
inactive: [1] -0.018 | [2] 0.043 | [3] 0 | [4] 0.045 | [5] 0.04

UAP1L1 (UniProt Q3KQV9)
inactive: [1] -0.091 | [2] -0.047 | [3] -0.083 | [4] -0.073 | [5] 0.043

UBE2E3 (UniProt Q969T4)
inactive: [1] 0.012 | [2] 0.001 | [3] 0.001 | [4] 0.002 | [5] -0.028

UBL4A (UniProt P11441)
inactive: [1] -0.029 | [2] -0.003 | [3] -0.017 | [4] 0.142 | [5] 0.073

UBE2K (UniProt P61086)
inactive: [1] 0.049 | [2] -0.032 | [3] -0.004 | [4] -0.018 | [5] -0.06

TUFM (UniProt P49411)
inactive: [1] 0.015 | [2] 0.051 | [3] 0.023 | [4] 0.071 | [5] 0.083

UBTF (UniProt P17480)
inactive: [1] -0.031 | [2] 0.028 | [3] -0.012 | [4] 0.007 | [5] 0.069
